The values below come from publication PMC11067372, “Evaluation of the antiplasmodial efficacy of synthetic 2,5-diphenyloxazole analogs of compounds naturally derived from Oxytropis lanata” (International Journal for Parasitology: Drugs and Drug …, 2024).

One data set relates to P. falciparum 3D7. Kind of data set: In vitro inhibition of P. falciparum 3D7 (SYBR Green I-based fluorescence assay). Conditions: selectivity index, CC50 HFFs relative to IC50 P. falciparum 3D7. The data set is classed as cell-based, Plasmodium falciparum.
The subject of a further data set is P. falciparum K1. Kind of data set: In vitro inhibition of P. falciparum K1 (SYBR Green I-based fluorescence assay). The class given is cell-based, Plasmodium falciparum. The conditions noted are these: for Resistance index: ratio between the IC50 values of P. falciparum K1 and 3D7; for SI K1: selectivity index, CC50 HFFs relative to IC50 P. falciparum K1. As to the method:
The cultures were maintained in an incubator under specific conditions: 37 °C under 5% CO2 and 5% O2.
The D-sorbitol method (CAS: 50-70-4, Wako, Osaka, Japan) was employed to synchronize parasites, resulting in the attainment of ≥90% ring-stage parasites. These synchronized parasites were then utilized for the experiments within a 2-h window. The assay was performed as follows. First, 50 μL of synchronized parasites with 0.5% parasitemia and 2% hematocrit were added to individual wells of a 96-well plate. Then, 50 μL of the test compounds was introduced to each well. […] Wells containing only test compounds and erythrocytes were included for background correction. […] After the designated incubation time, 100 μL of lysis buffer containing 0.02% (v/v) SYBR Green I was added to each well, the contents of the well were mixed by pipetting, and the plate was incubated in the dark at room temperature for 2 h. […] This assay was repeated four times at each concentration, and the resulting inhibitory values represent the average from three independent trials.
The IC50 or CC50 values were determined from three independent experiments by plotting the logarithmic concentration of the compound against the percent parasite inhibition or cell growth inhibition, respectively. Nonlinear regression analysis was conducted using GraphPad Prism 10 (GraphPad Software, Inc., La Jolla, CA, USA). Comparisons between groups were evaluated using either one-way or two-way ANOVA followed by Tukey's or Fisher's multiple comparisons tests. […] The meaning of each symbol is specified in the corresponding figure legend alongside the name of the employed test.

As for `COc1cccc(-c2ncc(-c3ccccc3O)o2)c1OC` [Compound 31, 2-(2′,3′-dimethoxyphenyl)-5-(2″-hydroxyphenyl)oxazole], in the data set with P. falciparum 3D7, the “SI 3D7” value was more than 40.20. Also, in the data set on P. falciparum K1, the Resistance index is 0.32 and the “SI K1” value is reported as more than 126.58.
On the same counts, the results for `CC(=O)Oc1ccccc1-c1cnc(-c2cccc(OC(C)=O)c2OC(C)=O)o1` [Compound 3] are 13.61, 0.51 and 26.69.
Take `Oc1ccccc1-c1cnc(-c2cccc(O)c2O)o1` [Compound 1, 2-(2′,3′-dihydroxyphenyl)-5-(2″-hydroxyphenyl)oxazole]: the “SI 3D7” value with P. falciparum 3D7 was 5.40. For the same molecule, in the data set on P. falciparum K1, the Resistance index was 0.56 and the “SI K1” value stood at 9.66.
The matching figures for `CC(=O)Oc1ccc(OC(C)=O)c(-c2cnc(-c3cc(OC(C)=O)ccc3OC(C)=O)o2)c1` [Compound 12]: 6.63, 0.46 and 14.43.
On the same counts, the results for `Oc1ccccc1-c1nnc(-c2cccc(O)c2O)s1` [Compound 44] are 25.01, 0.61 and 40.96.
On the same counts, the results for `COc1cccc(-c2ncc(-c3ccccc3OCc3ccccc3)o2)c1OC` [Compound 32, 2-(2′,3′-dimethoxyphenyl)-5-(2″-benzyloxyphenyl)oxazole] are more than 41.27, 0.70 and more than 59.06.
In the case of `Oc1ccccc1-c1coc(-c2cccc(O)c2O)n1` [Compound 47], in the data set with P. falciparum 3D7, the “SI 3D7” value turned out to be 15.33. In the data set with P. falciparum K1, the Resistance index stood at 0.68 and the “SI K1” value came out at 22.68.
The matching figures for `Oc1ccccc1-c1cnc(-c2cccc(O)c2O)s1` [Compound 40]: 11.71, 0.44 and 26.60.
On to `Oc1ccccc1-c1nnc(-c2cccc(O)c2O)o1` [Compound 42], for which the “SI 3D7” value with P. falciparum 3D7 was found to be 5.51. In the data set on P. falciparum K1, the Resistance index was found to be 0.65 and the “SI K1” value is given as 8.48.
On to `Oc1ccc(O)c(-c2ncc(-c3ccccc3O)o2)c1` [Compound 4, 2-(2′,5′-dihydroxyphenyl)-5-(2″-hydroxyphenyl)oxazole], for which, in the data set on P. falciparum 3D7, the “SI 3D7” value is 8.93. Besides, in the data set with P. falciparum K1, the Resistance index is 0.60 and the “SI K1” value was 14.81.
The matching figures for `Oc1ccc(O)c(-c2cnc(-c3ccccc3)o2)c1` [Compound 7, 2-phenyl-5-(2″,5″-hydroxyphenyl)oxazole]: 14.06, 0.43 and 32.89.
On the same counts, the results for `CC(=O)Oc1ccc(OC(C)=O)c(-c2cnc(-c3ccccc3)o2)c1` [Compound 9] are 16.79, 0.38 and 44.47.
The matching figures for `Oc1ccc(O)c(-c2cnc(-c3cc(O)ccc3O)o2)c1` [Compound 10, 2-(2′,5′-dihydroxyphenyl)-5-(2″,5″-dihydroxyphenyl)oxazole]: 3.13, 0.39 and 8.00.
